{"sequences": {"note": "By UniProt entry, the sequences of proteins in these tests, tags left out.", "UniProt Q05940, whole entry": "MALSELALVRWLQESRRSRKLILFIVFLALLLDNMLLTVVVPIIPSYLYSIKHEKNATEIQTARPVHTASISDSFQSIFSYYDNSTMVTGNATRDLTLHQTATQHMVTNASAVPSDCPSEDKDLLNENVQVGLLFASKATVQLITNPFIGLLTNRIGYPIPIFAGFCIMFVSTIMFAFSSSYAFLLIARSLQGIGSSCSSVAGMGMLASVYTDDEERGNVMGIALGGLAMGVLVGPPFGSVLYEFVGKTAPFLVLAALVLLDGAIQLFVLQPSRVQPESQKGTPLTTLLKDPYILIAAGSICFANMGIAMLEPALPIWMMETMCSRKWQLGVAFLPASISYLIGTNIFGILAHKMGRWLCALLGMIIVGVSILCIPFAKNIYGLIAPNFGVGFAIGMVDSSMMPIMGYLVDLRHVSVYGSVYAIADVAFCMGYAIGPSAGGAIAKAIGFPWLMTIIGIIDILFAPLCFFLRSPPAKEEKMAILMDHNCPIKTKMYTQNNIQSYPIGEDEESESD"}, "source": "patent US20230091671A1", "about": "(priority 2020, published 2023)", "target": "vesicular monoamine transporter 2 (VMAT2) (Homo sapiens, UniProt Q05940)"}
{"compound": "CN1CC[C@]23c4c5ccc(O)c4O[C@H]2[C@@H](O)C=C[C@H]3[C@H]1C5", "note": "[morphine]", "values": [{"measurement": "blockade of neurotransmitter uptake by VMAT / VMAT2", "value": "but not morphine"}]}
